Laboratory results taken from paper PMC7817668.
Results are given in words; binding and its absence hold for the method and conditions named. Binding seen in cells or lysates may run through a third protein. Some entries that bind do so weakly or less than the wild type.

The chains behind the UniProt entries cited, without tags or fusion partners.
UniProt O60238: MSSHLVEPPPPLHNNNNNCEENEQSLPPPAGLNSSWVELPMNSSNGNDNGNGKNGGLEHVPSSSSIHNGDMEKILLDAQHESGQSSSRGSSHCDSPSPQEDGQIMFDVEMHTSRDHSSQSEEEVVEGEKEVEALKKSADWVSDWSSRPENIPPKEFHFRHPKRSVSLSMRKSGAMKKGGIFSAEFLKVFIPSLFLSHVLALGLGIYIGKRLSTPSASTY
UniProt O60260: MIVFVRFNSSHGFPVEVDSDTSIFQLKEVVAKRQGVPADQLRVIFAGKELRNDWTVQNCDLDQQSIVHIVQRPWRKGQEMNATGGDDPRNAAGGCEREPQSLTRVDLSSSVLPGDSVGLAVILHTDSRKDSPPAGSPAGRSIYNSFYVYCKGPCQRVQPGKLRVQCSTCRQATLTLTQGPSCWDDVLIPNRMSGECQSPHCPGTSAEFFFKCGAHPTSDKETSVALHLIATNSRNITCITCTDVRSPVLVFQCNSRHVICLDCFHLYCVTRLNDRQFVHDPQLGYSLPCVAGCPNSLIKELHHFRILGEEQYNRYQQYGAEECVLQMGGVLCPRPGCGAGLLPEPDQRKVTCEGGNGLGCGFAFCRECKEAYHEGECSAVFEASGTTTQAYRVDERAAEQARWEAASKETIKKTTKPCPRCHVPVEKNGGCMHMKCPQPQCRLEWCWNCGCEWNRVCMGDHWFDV

Target: BNIP3-like (BNIP3L)/NIX (human (endogenous in SH-SY5Y)) (UniProt O60238)
Assay: co-IP; primary antibody immobilised on SureBeads protein G magnetic beads, incubated with total cell lysate (300 ug) at 4 °C overnight; western blot; SH-SY5Y cells with nontargeting or PARK2 siRNA for 24 h, then cortisol for 24 h

parkin (from UniProt O60260 1-465)
binding: binds
